Results deposited as PubChem BioAssay AID504791 (Drosophila RNAi Screening Center, 2011).
Purpose: 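Factors in Argonaute-based small RNA production and activity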 (primary screen). Cell system: Drosophila S2-derived reporter cells. Knock-down reagent: long dsRNA against Drosophila genes, about 150-250 ng dsRNA per well (siRNA assay); about 80-120 ng (miRNA assay). Duration: about 5 days (siRNA assay); about 4 days (miRNA assay). Challenge: copper sulfate induction of reporters: 25 µM (siRNA assay); 200 mM stated (miRNA assay), 1-2 days before reading. Detection: 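Dual luciferase assay: Renilla to firefly signal ratio in each well, scaled to the mean ratio of its plate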. Call rule: 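First-pass picks had plate-scaled ratios over 1.5 for the siRNA assay, over 1.6 for the miRNA assay, or under 0.6; two distinct dsRNAs had to score alike on retest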.
The screen tested about 23,000 reagents; this is an unselected part of those that have a named target and a result. Over the whole deposit, 199 (0.86%) are marked active. 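Plate-scaled ratios behind the calls are not deposited; printed light signals are raw; many rows marked increased or decreased are still called inactive.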 Names joined by + are all predicted targets of the reagent. Reagent sequences are not shown. Not stated in the record: the direction of the score.

| gene | amplicon | miRNA reporter change | stable assay Renilla, run 1 (luminescence) | stable assay firefly, run 1 (luminescence) | Call |
| --- | --- | --- | --- | --- | --- |
| Paf-AHalpha | DRSC20267 | – | 6071 | 4.26e5 | inactive |
| Dsor1 | DRSC18462 | reporter ratio lowered past the hit cutoff | 4915 | 3.00e5 | active |
| CG30054 | DRSC05354 | – | 5167 | 4.29e5 | inactive |
| CG12395 | DRSC19453 | – | 3452 | 2.90e5 | inactive |
| CG4382 | DRSC02743 | – | 7450 | 3.16e5 | inactive |
| SMSr | DRSC10998 | – | 7677 | 4.10e5 | inactive |
| SMSr | DRSC10999 | – | 7202 | 4.63e5 | inactive |
| CG42306 + Gint3 | DRSC06934 | – | 9723 | 3.78e5 | inactive |
| CG15330 | DRSC18014 | – | 4991 | 2.66e5 | inactive |
| Nep4 | DRSC15539 | – | 8639 | 3.29e5 | inactive |
| CG10845 | DRSC14272 | – | 6814 | 4.00e5 | inactive |
| CG16959 | DRSC10230 | – | 7107 | 2.46e5 | inactive |
| CG7384 | DRSC03053 | – | 7835 | 6.81e5 | inactive |
| RhoGAPp190 | DRSC20097 | – | 6864 | 6.97e5 | inactive |
| RhoGAPp190 | DRSC20099 | – | 8895 | 4.49e5 | inactive |
| CAHbeta | DRSC14449 | – | 8579 | 4.53e5 | inactive |
| ERp44 | DRSC20215 | – | 8303 | 6.79e5 | inactive |
| Strica | DRSC04920 | – | 6180 | 3.12e5 | inactive |
| CG43322 | DRSC02280 | – | 7761 | 4.21e5 | inactive |
| HP6 | DRSC00471 | – | 7519 | 3.38e5 | inactive |
| CG9083 | DRSC04625 | – | 27293 | 1.13e6 | inactive |
| TfIIFalpha | DRSC12608 | – | 5991 | 3.54e5 | inactive |
| alpha4GT2 | DRSC15905 | – | 6795 | 3.82e5 | inactive |
| Akap200 | DRSC01864 | – | 11881 | 7.57e5 | inactive |
| Lamtor1 | DRSC10183 | – | 7602 | 4.49e5 | inactive |
| Pu | DRSC04645 | – | 3.92e5 | 2.96e5 | inactive |
| Pcd | DRSC16785 | – | 6847 | 3.29e5 | inactive |

6 entries from above, reformatted.
{"gene": "Strica", "amplicon": "DRSC04920", "stable assay Renilla, run 1 (luminescence)": 6180, "stable assay firefly, run 1 (luminescence)": 3.12e5, "Call": "inactive"}
{"gene": "CG43322", "amplicon": "DRSC02280", "stable assay Renilla, run 1 (luminescence)": 7761, "stable assay firefly, run 1 (luminescence)": 4.21e5, "Call": "inactive"}
{"gene": "HP6", "amplicon": "DRSC00471", "stable assay Renilla, run 1 (luminescence)": 7519, "stable assay firefly, run 1 (luminescence)": 3.38e5, "Call": "inactive"}
{"gene": "CG9083", "amplicon": "DRSC04625", "stable assay Renilla, run 1 (luminescence)": 27293, "stable assay firefly, run 1 (luminescence)": 1.13e6, "Call": "inactive"}
{"gene": "TfIIFalpha", "amplicon": "DRSC12608", "stable assay Renilla, run 1 (luminescence)": 5991, "stable assay firefly, run 1 (luminescence)": 3.54e5, "Call": "inactive"}
{"gene": "alpha4GT2", "amplicon": "DRSC15905", "stable assay Renilla, run 1 (luminescence)": 6795, "stable assay firefly, run 1 (luminescence)": 3.82e5, "Call": "inactive"}

More records follow.
| gene | amplicon | miRNA reporter change | stable assay Renilla, run 1 (luminescence) | stable assay firefly, run 1 (luminescence) | Call |
| --- | --- | --- | --- | --- | --- |
| Muc68E | DRSC09146 | – | 4163 | 3.29e5 | inactive |
| CG42404 | DRSC15558 | – | 8165 | 4.22e5 | inactive |
| Cyt-c1L | DRSC14860 | – | 6207 | 5.47e5 | inactive |
| Cyt-c1L | DRSC22096 | – | 9223 | 5.13e5 | inactive |
| CG15034 | DRSC17966 | – | 5698 | 3.10e5 | inactive |
| Kul | DRSC15404 | – | 6751 | 3.57e5 | inactive |
| Or19a | DRSC20684 | – | 5964 | 3.78e5 | inactive |
| sqd | DRSC15160 | – | 6950 | 4.23e5 | inactive |
| sqd | DRSC17066 | – | 3323 | 4.35e5 | inactive |
| CG1722 | DRSC20547 | – | 6466 | 4.12e5 | inactive |
| CG13131 | DRSC02227 | – | 7444 | 4.17e5 | inactive |
| CG13131 | DRSC23253 | – | 4455 | 3.75e5 | inactive |
| DNAlig3 | DRSC15201 | – | 7906 | 3.78e5 | inactive |
| CG10516 | DRSC09738 | – | 6642 | 3.03e5 | inactive |
| CG4596 | DRSC15608 | – | 7575 | 4.21e5 | inactive |
| CG13609 | DRSC14612 | – | 6928 | 3.52e5 | inactive |
| CG13609 | DRSC22843 | – | 4020 | 3.30e5 | inactive |
| Dgkepsilon | DRSC07399 | – | 7746 | 3.93e5 | inactive |
| CG11986 | DRSC14461 | – | 8829 | 4.62e5 | inactive |
| CG32235 | DRSC23257 | – | 5868 | 4.53e5 | inactive |
| Drep1 | DRSC07527 | – | 5247 | 3.53e5 | inactive |
| RpL23 | DRSC04648 | – | 6356 | 3.24e5 | inactive |
| fz | DRSC11348 | – | 8295 | 3.98e5 | inactive |
| AlkB | DRSC19115 | – | 4624 | 4.07e5 | inactive |
| SmydA-9 | DRSC17814 | – | 5690 | 4.74e5 | inactive |
| CG42656 | DRSC12472 | – | 5155 | 3.13e5 | inactive |
| CG6610 | DRSC10674 | – | 7825 | 5.29e5 | inactive |
| Dus2 | DRSC19591 | – | 8130 | 4.91e5 | inactive |
| CG15084 | DRSC06515 | – | 5216 | 4.54e5 | inactive |
| CG15084 | DRSC21403 | – | 8962 | 4.82e5 | inactive |
